# The shares of active, inactive and inconclusive entries below differ from those in the screen. Potencies beside an inconclusive call are fits to weak or partial responses and may not hold up. The source made the active and inactive calls. How the source made its calls: active means hit-call score of the fitted dose curve at least 0.9, where 1 is the maximum; inconclusive means response in the unintended direction; inactive means score below 0.9.
# The chains behind the UniProt entries cited, without tags or fusion partners. Where a name states a change or a piece, a line headed by the entry shows the natural chain unless it says otherwise.
# UniProt Q04400: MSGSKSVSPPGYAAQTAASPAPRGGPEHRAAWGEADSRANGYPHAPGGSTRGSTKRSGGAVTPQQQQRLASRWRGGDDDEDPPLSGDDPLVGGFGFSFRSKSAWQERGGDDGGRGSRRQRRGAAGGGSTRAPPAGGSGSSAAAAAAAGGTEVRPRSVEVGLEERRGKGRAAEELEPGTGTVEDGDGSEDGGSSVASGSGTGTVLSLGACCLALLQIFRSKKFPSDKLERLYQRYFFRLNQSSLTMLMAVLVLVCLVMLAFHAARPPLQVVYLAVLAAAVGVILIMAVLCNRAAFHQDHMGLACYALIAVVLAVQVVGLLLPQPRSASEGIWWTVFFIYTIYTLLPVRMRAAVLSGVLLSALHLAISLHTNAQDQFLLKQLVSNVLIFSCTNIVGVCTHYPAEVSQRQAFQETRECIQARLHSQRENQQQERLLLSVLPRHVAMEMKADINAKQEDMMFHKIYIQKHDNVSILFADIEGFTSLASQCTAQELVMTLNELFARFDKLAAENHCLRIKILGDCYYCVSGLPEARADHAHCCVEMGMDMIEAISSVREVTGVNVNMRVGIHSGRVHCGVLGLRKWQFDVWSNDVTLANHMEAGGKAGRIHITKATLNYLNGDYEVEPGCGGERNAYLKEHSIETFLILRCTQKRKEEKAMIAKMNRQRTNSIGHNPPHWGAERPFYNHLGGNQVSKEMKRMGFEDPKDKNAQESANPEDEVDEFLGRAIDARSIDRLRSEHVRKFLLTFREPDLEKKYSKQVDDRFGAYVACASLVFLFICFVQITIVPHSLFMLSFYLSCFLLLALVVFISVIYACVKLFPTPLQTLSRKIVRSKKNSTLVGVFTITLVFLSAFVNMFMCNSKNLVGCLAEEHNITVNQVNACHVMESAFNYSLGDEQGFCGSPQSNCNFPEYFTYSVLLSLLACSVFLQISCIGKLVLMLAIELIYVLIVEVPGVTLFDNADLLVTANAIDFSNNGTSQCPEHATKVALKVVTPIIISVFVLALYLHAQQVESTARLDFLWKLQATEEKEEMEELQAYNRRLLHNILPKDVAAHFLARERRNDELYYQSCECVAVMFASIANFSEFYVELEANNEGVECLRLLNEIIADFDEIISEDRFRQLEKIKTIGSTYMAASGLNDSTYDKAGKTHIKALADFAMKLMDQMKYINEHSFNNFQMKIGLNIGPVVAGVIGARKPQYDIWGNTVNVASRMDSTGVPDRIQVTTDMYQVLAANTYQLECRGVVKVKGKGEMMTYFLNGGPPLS
# Molecular target: hamster Adenylyl Cyclase, Adcy5 (gene 64532) (UniProt Q04400)
# Assay: ERF_FR_ENZ_rACFSK_Antagonist: Eurofins (ERF) Enzymatic LeadHunter Assay for hamster Adenylyl Cyclase Antagonism
# Description: ERF_FR_ENZ_rACFSK_Antagonist is a biochemical, single-readout assay that uses extracted gene-proteins in a cell-free assay. Measurements were taken 0.16 hour after chemical dosing in a 96-well plate. See Adenylyl Cyclase Hamster Enzymatic Antagonist Assay, Cerep.ERF_FR_ENZ_rACFSK_Antagonist is an assay component calculated from the ERF_FR_ENZ_rACFSK assay. It is designed to measure enzyme activity using a type of enzyme reporter as detected by fluorescence intensity with HTRF technology.Data from the assay component ERF_FR_ENZ_rACFSK_Antagonist was analyzed at the assay endpoint, ERF_FR_ENZ_rACFSK_Antagonist, in the positive analysis fitting direction relative to DMSO as the negative control and baseline of activity. Using a type of enzyme reporter, loss-of-signal activity can be used to understand changes in binding as they relate to gene ADCY5. To generalize the intended target to other relatable targets, this assay endpoint is annotated to the gpcr intended target family, where the subfamily is adenylyl cyclase.
# Hamster cells are incubated for 10 minutes at room temprature. Test Sample Requirements: Minimum for 1) Screen: 60 ul of 10 mM stock -OR- 1 mg (pre-weighed) for 10 uM final testing. 2) Dose Response: 90 ul of 10 mM stock -OR- 1 mg (pre-weighed) for a top concentration at 10 uM.
Compound,AC50,outcome
CCCCC[C@H](O)CC(=O)CCc1ccc(O)c(OC)c1,inconclusive: 992 nM,–
COc1cc(CCC(=O)CC(=O)CCc2ccc(O)c(OC)c2)ccc1O,–,inactive
